The source of these data is paper PMC7862700.

Only a part is listed here, and it is no random draw. At the low end of the ranking, values are background and their order means little.

The assay deals with SPI1 (UniProt P17947). In words: DAPPL (digital affinity profiling via proximity ligation, sequencing). The conditions noted are these: 10 mM Tris-HCl pH 7.5, 50 mM NaCl, 1 mM DTT, 4% glycerol, room temperature, 30 min; GST-TFs on glutathione beads, 16-mer random dsDNA library, 0.1% …; high values mean tight binding; double strand, one strand shown; scale: fold enrichment (6-mer frequency, TF over GST control).
For TCTATT, the binding signal came to 1.28.

Sequence GTCTCT yielded a binding signal of 1.32.

As to GACCCC, the binding signal is 0.899.

Turning to CAGATC, the binding signal came to 0.863.

CAGCTC displayed a binding signal of 0.941.

In turn, TAGGCC gave a binding signal of 0.938.

The sequence GTTGTC came in with a binding signal of 0.876.

The sequence TTAGGC returned a binding signal of 0.941.

ACGTAC: the binding signal stood at 1.18.

Turning to CGAATC, the binding signal stood at 0.907.

Consider TCCCCC, for which the binding signal came out at 1.46.

As for TGCAGA, the binding signal stood at 0.978.

For AGTACT, the binding signal is 1.25.

ATTGCA yielded a binding signal of 1.19.

The sequence CACGGA showed a binding signal of 0.951.

For AGCGCC, the binding signal is 0.99.

The sequence GACCGG registered a binding signal of 0.972.

In the case of GTGCCG, the binding signal worked out at 0.864.

In turn, TAACGT returned a binding signal of 1.03.

Consider GGATTA, for which the binding signal was 0.845.

GCGTCA gave a binding signal of 0.977.

On to GCCCTG, for which the binding signal is 0.865.

With AGAACT, the binding signal worked out at 0.924.

On to CATCAA, for which the binding signal is 0.973.

The sequence CCCAGA registered a binding signal of 0.847.

On to GCGCAC, for which the binding signal amounted to 0.864.

Sequence CAATAG yielded a binding signal of 1.04.

TTATAA showed a binding signal of 1.16.

For the sequence GTAATG, the binding signal amounted to 0.996.

TGGGTA registered a binding signal of 0.98.

Regarding GTGATG, the binding signal is 0.929.

In turn, TTCTTG displayed a binding signal of 1.45.

Regarding CCCTGA, the binding signal amounted to 1.03.

Sequence ATTTTA yielded a binding signal of 1.34.

For the sequence AACCAC, the binding signal stood at 1.12.

Take TAGTAG: the binding signal was 0.935.

TAAGGC: the binding signal was 0.856.

As to CCAAGA, the binding signal came out at 0.91.
